These are yes or no findings as the source states them, for the method shown. Some results given as binding are weak or reduced against the parent protein; the word gives no strength. Tags and fused reporters may be left off the sequences shown.
T1: GFP-AtEH1 (recombinant, full length) (A. thaliana) (UniProt Q9LM78)
T1 sequence: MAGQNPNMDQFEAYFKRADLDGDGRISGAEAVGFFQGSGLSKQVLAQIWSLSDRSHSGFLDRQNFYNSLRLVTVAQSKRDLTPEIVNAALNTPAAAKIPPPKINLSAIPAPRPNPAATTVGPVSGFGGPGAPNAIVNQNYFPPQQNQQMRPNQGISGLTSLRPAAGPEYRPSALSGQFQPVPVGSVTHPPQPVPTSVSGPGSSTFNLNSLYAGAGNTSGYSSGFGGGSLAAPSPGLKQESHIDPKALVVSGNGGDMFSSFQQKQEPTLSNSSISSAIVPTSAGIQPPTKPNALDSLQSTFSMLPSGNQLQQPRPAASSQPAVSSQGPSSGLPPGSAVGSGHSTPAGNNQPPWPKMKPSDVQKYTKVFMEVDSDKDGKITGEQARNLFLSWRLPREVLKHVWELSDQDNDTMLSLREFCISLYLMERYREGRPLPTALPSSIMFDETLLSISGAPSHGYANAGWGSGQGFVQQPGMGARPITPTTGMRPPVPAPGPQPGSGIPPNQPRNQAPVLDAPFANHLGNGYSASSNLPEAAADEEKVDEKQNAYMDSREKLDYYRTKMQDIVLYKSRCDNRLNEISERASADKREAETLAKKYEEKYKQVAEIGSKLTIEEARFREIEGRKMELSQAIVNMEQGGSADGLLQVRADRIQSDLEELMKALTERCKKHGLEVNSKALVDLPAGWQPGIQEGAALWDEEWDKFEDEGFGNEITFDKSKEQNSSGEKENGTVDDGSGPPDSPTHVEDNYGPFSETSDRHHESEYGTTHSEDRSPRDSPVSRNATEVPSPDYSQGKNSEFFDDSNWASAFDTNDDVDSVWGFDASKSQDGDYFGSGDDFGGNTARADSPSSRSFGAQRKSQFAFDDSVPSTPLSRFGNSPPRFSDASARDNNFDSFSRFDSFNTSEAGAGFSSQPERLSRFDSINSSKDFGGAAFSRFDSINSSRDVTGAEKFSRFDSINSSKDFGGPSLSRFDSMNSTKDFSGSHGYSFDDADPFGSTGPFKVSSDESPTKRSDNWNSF

T2: AtEH1-GFP (35S:AtEH1-GFP) (A. thaliana) (UniProt Q9LM78)
T2 sequence: T1 sequence

B1: TOL6-mCherry (recombinant) (protein, UniProt O80910 1-671)
chain: MASSSASATVAVDKATSDLLLGPDWTTNMEICDSVNSLHWQAKDVVKAVKKRLQHKSSRVQLLALTLLETLVKNCGDYLHHQVAEKNILGEMVKIVKKKADMQVRDKILVMVDSWQQAFGGPEGKYPQYYWAYDELRRSGVEFPRRSPDASPIITPPVSHPPLRQPQGGYGVPPAGYGVHQAGYGVPQAGYGIPQAGYGVPQAGYGIPQVGYGMPSGSSRRLDEAMATEVEGLSLSSIESMRDVMDLLGDMLQAVDPSDREAVKDEVIVDLVERCRSNQKKLMQMLTSTGDDELLGRGLDLNDSLQILLAKHDAIASGSPLPVQASGSPLSVQASKPADSSPKSSEAKDSSSIAGSSSPIPATVSTGKSPIDEEYEEEEDEFAQLARRHSKPPASVTTDPTSLESHNAASNALALALPDPPPPVNTTKEQDMIDLLSITLCTPSTPPAPSSQPSPPPPAGSDQNTHIYPQPQPRFDSYVAPWAQQQQPQQPQAQQGYSQHQQHQQQQGYSQPQHSQQQQGYSQLQQPQPQQGYSQSQPQAQVQMQPSTRPQNPYEYPPPPWASTSANAYYTPRANASASYTDTSALAGRSLQQSNSFPTRAGDPQATSTASNSGVSVGQKPFVPSYRLFEDLDVFGSADGKHNKPANSSNGSQNLSGSQTQQSMIGGRKMI
B2: TOL9-mCherry (recombinant) (protein, UniProt Q8L860 1-675)
chain: MVNAMVERATSEMLIGPDWAMNLEICDMLNSDPAQAKDVVKGIKKRIGSRNPKAQLLALTLLETIVKNCGDMVHMHVAEKGVIHEMVRIVKKKPDFHVKEKILVLIDTWQEAFGGPRARYPQYYAGYQELLRAGAVFPQRSERSAPVFTPPQTQPLTSYPPNLRNAGPGNDVPEPSAEPEFPTLSLSEIQNAKGIMDVLAEMLSALEPGNKEDLKQEVMVDLVEQCRTYKQRVVHLVNSTSDESLLCQGLALNDDLQRVLTNYEAIASGLPGTSSQIEKPKSETGKSLVDVDGPLIDTGDSSNQANGATSSSGNGVLNQLALPAPPVTNGSANSKIDLLSGDDLALVPVGPPQPASPVASDQNALALIDMFSDNTNNPSPATAPSGNPAQNIPLNPQGHQQPNSQAGEAGLQQSNGFAPQVGYSQFEQPSYGQGVSSPWSSQPAQQPVQPSYGAQDSTAFPPPPWEAQLQDYSPSAESGSPFSPGMHPTQTAFTHAQPVNNNNPYPQIPQTGPPVNNNSPYAQMPQTGQAVANISPYPQIPQNGVYMPNQPNQALGSGYQPQQQQQQQMMMAQYYAQQQQLQQQQQQQAYGNQMGGYGYGYNQQQQGSSPYLDQQMYGLSMRDQTSHQVASSSSTTSYLPPMKPKNKPEDKLFGDLVDISKFKPTKPTSGRAGTM
B3: clathrin light chain 2 (CLC-mKo) (protein, UniProt O04209 1-258)
chain: MSAFEDDSFVILNDDASESVPVSGSFDATDSFSAFDGSLQVEDSVDDVFAAPSSDYGAYSNGDGIFGSNGDHDGPILPPPSEMESDEGFALREWRRQNAIQLEEKEKREKELLKQIIEEADQYKEEFHKKIEVTCENNKAANREKEKLYLENQEKFYAESSKNYWKAIAELVPKEVPTIEKRRGKKEQQDPKKPTVSVIQGPKPGKPTDLTRMRQILVKLKHNPPSHLKLTSQPPSEEAAAPPKNVPETKPTEAVTAA

Key:
[1] = target: T1, GFP-AtEH1 (recombinant, full length) (A. thaliana); test: in vitro partitioning assay (confocal microscopy of droplets); 5 µM EH1(FL)-GFP after MBP cleaved and 5 µM mCherry-TOL6 mixed in 40 mM Tris-HCl pH7.4, 100 mM NaCl, on ice for 30 min; droplets observed in a 384-well plate; both purified
[2] = target: T2, AtEH1-GFP (35S:AtEH1-GFP) (A. thaliana); test: partitioning into condensates (Airyscan microscopy); CLC-mKo and 35S:AtEH1-GFP in A. thaliana hypocotyl cells; plot profiles of fluorescence

Row | Binder | binding [1] | binding [2]
1 | B1 | binds | –
2 | B2 | binds | –
3 | B3 | – | binds

Source: paper PMC7615741
